# No constants are given. Whether binding was seen depends on the method and setting. Some entries that bind do so weakly or less than the wild type.
# B1: MGU11 (antibody, V domains shown)
# VH: QVQLVESGGGVVQPGRSLRLSCVASGFSFSSYGMHWVRQAPGKGLEWVAVIWYDGTNKYYADSVKGRFTISRDNTKNTLYLQMNSLRADDTAMYYCANDIAGWGYDGSNAWGQGTLVTVSS
# VL: LSLPVTPGQPASISCKSSQSLVYSDGNTYLNWFQQRPGQSPRRLIYKVSNRDSGVPDRFSGSGSGTDFTLKISRVEAEDVGVYYCMQGTVGFTFGPGTTVDIK
# B2: MGH3 (antibody, V domains shown)
# VH: EVQLVESGGGLVKPGGSLRLSCAASGFTFSSYTMNWVRQAPGKGLEWVSSISSSGSYIYYADSVKGRCTISRDNAKNSLDLQMNSLRAEDAAVYYCARNVLDSSGYPTYFDYWGQGTLVTVSS
# VL: DIVMTQSPLSLPVTPGEPASISCRSSQSLLYSNGYNYLDWYVQKPGQSPRLLIYLGSNRASGVPDRFSGSGSGTDFTLRISRVEAEDVGFYYCMQAVQTPLTFGGGTKVEIK
# How the values were obtained:
# [1] = target: NANP-peptide (Plasmodium falciparum); experiment: ELISA, peptide coated, titrated antibody
# [2] = target: circumsporozoite protein (CSP) on the surface of intact P. falciparum sporozoites (Plasmodium falciparum) (UniProt P19597); experiment: flow cytometry staining of SYBR Green I labelled sporozoites
Binder,binding [1],binding [2]
B1,binds,
B2,,binds
